According to publication PMC8812845:
Results are given in words; binding and its absence hold for the method and conditions named. In cells and extracts the contact can be indirect. A yes stands for co-enrichment or nearness to the bait. Other partners may have been found.

Sequences of proteins named here, by UniProt entry; tags and fusion partners are left off.
UniProt Q9UKA9: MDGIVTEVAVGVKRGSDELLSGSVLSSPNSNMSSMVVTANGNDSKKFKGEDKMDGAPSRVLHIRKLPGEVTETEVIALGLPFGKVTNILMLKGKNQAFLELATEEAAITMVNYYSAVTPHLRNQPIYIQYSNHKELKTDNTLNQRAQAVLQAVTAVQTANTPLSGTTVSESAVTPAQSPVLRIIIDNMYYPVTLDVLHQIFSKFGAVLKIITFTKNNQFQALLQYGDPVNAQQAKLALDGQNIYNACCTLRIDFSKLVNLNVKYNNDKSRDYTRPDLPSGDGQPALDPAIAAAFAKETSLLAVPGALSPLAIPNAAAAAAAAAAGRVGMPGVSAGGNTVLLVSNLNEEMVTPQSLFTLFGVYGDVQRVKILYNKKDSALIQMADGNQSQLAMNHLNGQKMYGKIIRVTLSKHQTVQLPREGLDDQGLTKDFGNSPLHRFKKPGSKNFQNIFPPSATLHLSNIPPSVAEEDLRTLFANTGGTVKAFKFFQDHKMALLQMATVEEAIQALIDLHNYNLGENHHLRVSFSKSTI

B1: CHRC1 (protein, UniProt Q9NRG0 1-131)
chain: MADVVVGKDKGGEQRLISLPLSRIRVIMKSSPEVSSINQEALVLTAKATELFVQCLATYSYRHGSGKEKKVLTYSDLANTAQQSETFQFLADILPKKILASKYLKMLKEEKREEDEENDNDNESDHDEADS
B2: RBM33 (protein, UniProt Q96EV2 1-1170)
chain: MAAALGASGGAGAGDDDFDQFDKPGAERSWRRRAADEDWDSELEDDLLGEDLLSGKKNQSDLSDEELNDDLLQSDNEDEENFSSQGVTISLNATSGMVTSFELSDNTNDQSGEQESEYEQEQGEDELVYHKSDGSELYTQEYPEEGQYEGHEAELTEDQIEYVEEPEEEQLYTDEVLDIEINEPLDEFTGGMETLELQKDIKEESDEEEEDDEESGRLRFKTERKEGTIIRLSDVTRERRNIPETLELSAEAKAALLEFEERERQHKQGRYSSRRGGRRGGPLMCRGVGDQRRESTERGRMKDHRPALLPTQPPVVPQAPPPPPPPPQQQPIRSLFQPQPLQPLLPVQHPHHPSPPQGMHMPPQLETPRMMMTPPPVTPQQPKNIHINPHFKGTVVTPVQVPLLPVPSQPRPAVGPQRFPGPPEFPQHTPGPVPNSFSQPPRLPLQDQWRAPPPPQDRDPFFLGVSGEPRFPSHLFLEQRSPPPPPPPPTLLNSSHPVPTQSPLPFTQPGPAFNQQGQQPVFPRERPVRPALQPPGPVGILHFSQPGSATTRPFIPPRQPFLPGPGQPFLPTHTQPNLQGPLHPPLPPPHQPQPQQPQQQPPPQHQPPHQPPHQPPPQHQPPPQHPPQHPPQHQHHHHHHHLSVPPPPLMPMSQPQFRPHVQTAQPQASSSRMQCPQRQGLRHNTTSQNVSKRPMQQMQPTAPRNSNLRELPIAPSHVIEMSSSRCSATPSAQVKPIVSASPPSRAVAGSRSSQGKTEVKVKPASPVAQPKEEAKTETEFPDEDEETRLYRLKIEEQKRLREEILKQKELRRQQQAGARKKELLERLAQQQQQLYAPPPPAEQEEQALSPSPTNGNPLLPFPGAQVRQNVKNRLLVKNQDVSISNVQPKTSNFVPSSANMQYQGQQMKALKHLRQTRTVPQSQTQPLHKVLPIKPADVEEPAVPQTPRVASIQGRPQDTKPGVKRTVTHRTNSGGGDGPHISSKVRVIKLSGGGGESDGFFHPEGQPQRLPQPPEVGPQPARKVTLTRGGLQQPPHLPAGPHAHSPVPPGIKSIQGIHPAKKAIMHGRGRGVAGPMGRGRLMPNKQNLRVVECKPQPCVVSVEGLSSSTTDAQLKSLLMSVGPIQSLQMLPQQRKAIAKFKEPAHALAFQQKFHRHMIDLSHINVALIVE
B3: AIP (protein, UniProt O00170 1-330)
chain: MADIIARLREDGIQKRVIQEGRGELPDFQDGTKATFHYRTLHSDDEGTVLDDSRARGKPMELIIGKKFKLPVWETIVCTMREGEIAQFLCDIKHVVLYPLVAKSLRNIAVGKDPLEGQRHCCGVAQMREHSSLGHADLDALQQNPQPLIFHMEMLKVESPGTYQQDPWAMTDEEKAKAVPLIHQEGNRLYREGHVKEAAAKYYDAIACLKNLQMKEQPGSPEWIQLDQQITPLLLNYCQCKLVVEEYYEVLDHCSSILNKYDDNVKAYFKRGKAHAAVWNAQEAQADFAKVLELDPALAPVVSRELRALEARIRQKDEEDKARFRGIFSH
B4: ATN1 (protein, UniProt P54259 1-1190)
chain: MKTRQNKDSMSMRSGRKKEAPGPREELRSRGRASPGGVSTSSSDGKAEKSRQTAKKARVEEASTPKVNKQGRSEEISESESEETNAPKKTKTEQELPRPQSPSDLDSLDGRSLNDDGSSDPRDIDQDNRSTSPSIYSPGSVENDSDSSSGLSQGPARPYHPPPLFPPSPQPPDSTPRQPEASFEPHPSVTPTGYHAPMEPPTSRMFQAPPGAPPPHPQLYPGGTGGVLSGPPMGPKGGGAASSVGGPNGGKQHPPPTTPISVSSSGASGAPPTKPPTTPVGGGNLPSAPPPANFPHVTPNLPPPPALRPLNNASASPPGLGAQPLPGHLPSPHAMGQGMGGLPPGPEKGPTLAPSPHSLPPASSSAPAPPMRFPYSSSSSSSAAASSSSSSSSSSASPFPASQALPSYPHSFPPPTSLSVSNQPPKYTQPSLPSQAVWSQGPPPPPPYGRLLANSNAHPGPFPPSTGAQSTAHPPVSTHHHHHQQQQQQQQQQQQQQQQQQQHHGNSGPPPPGAFPHPLEGGSSHHAHPYAMSPSLGSLRPYPPGPAHLPPPHSQVSYSQAGPNGPPVSSSSNSSSSTSQGSYPCSHPSPSQGPQGAPYPFPPVPTVTTSSATLSTVIATVASSPAGYKTASPPGPPPYGKRAPSPGAYKTATPPGYKPGSPPSFRTGTPPGYRGTSPPAGPGTFKPGSPTVGPGPLPPAGPSGLPSLPPPPAAPASGPPLSATQIKQEPAEEYETPESPVPPARSPSPPPKVVDVPSHASQSARFNKHLDRGFNSCARSDLYFVPLEGSKLAKKRADLVEKVRREAEQRAREEKEREREREREKEREREKERELERSVKLAQEGRAPVECPSLGPVPHRPPFEPGSAVATVPPYLGPDTPALRTLSEYARPHVMSPGNRNHPFYVPLGAVDPGLLGYNVPALYSSDPAAREREREARERDLRDRLKPGFEVKPSELEPLHGVPGPGLDPFPRHGGLALQPGPPGLHPFPFHPSLGPLERERLALAAGPALRPDMSYAERLAAERQHAERVAALGNDPLARLQMLNVTPHHHQHSHIHSHLHLHQQDAIHAASASVHPLIDPLASGSHLTRIPYPAGTLPNPLLPHPLHENEVLRHQLFAAPYRDLPASLSAPMSAAHQLQAMHAQSAELQRLALEQQQWLHAHHPLHSVPLPAQEDYYSHLKKESDKPL
B5: SNRNP27 (protein, UniProt Q8WVK2 1-155)
chain: MGRSRSRSPRRERRRSRSTSRERERRRRERSRSRERDRRRSRSRSPHRRRSRSPRRHRSTSPSPSRLKERRDEEKKETKETKSKERQITEEDLEGKTEEEIEMMKLMGFASFDSTKGKKVDGSVNAYAINVSQKRKYRQYMNRKGGFNRPLDFIA
B6: Serine–Arginine related protein 53 (protein, UniProt Q96IZ7 1-334)
chain: MGRRSSDTEEESRSKRKKKHRRRSSSSSSSDSRTYSRKKGGRKSRSKSRSWSRDLQPRSHSYDRRRRHRSSSSSSYGSRRKRSRSRSRGRGKSYRVQRSRSKSRTRRSRSRPRLRSHSRSSERSSHRRTRSRSRDRERRKGRDKEKREKEKDKGKDKELHNIKRGESGNIKAGLEHLPPAEQAKARLQLVLEAAAKADEALKAKERNEEEAKRRKEEDQATLVEQVKRVKEIEAIESDSFVQQTFRSSKEVKKSVEPSEVKQATSTSGPASAVADPPSTEKEIDPTSIPTAIKYQDDNSLAHPNLFIEKADAEEKWFKRLIALRQERLMGSPVA
B7: SARNP (protein, UniProt P82979 1-210)
chain: MATETVELHKLKLAELKQECLARGLETKGIKQDLIHRLQAYLEEHAEEEANEEDVLGDETEEEETKPIELPVKEEEPPEKTVDVAAEKKVVKITSEIPQTERMQKRAERFNVPVSLESKKAARAARFGISSVPTKGLSSDNKPMVNLDKLKERAQRFGLNVSSISRKSEDDEKLKKRKERFGIVTSSAGTGTTEDTEAKKRKRAERFGIA
B8: RYBP (protein, UniProt Q8N488 1-228)
chain: MTMGDKKSPTRPKRQAKPAADEGFWDCSVCTFRNSAEAFKCSICDVRKGTSTRKPRINSQLVAQQVAQQYATPPPPKKEKKEKVEKQDKEKPEKDKEISPSVTKKNTNKKTKPKSDILKDPPSEANSIQSANATTKTSETNHTSRPRLKNVDRSTAQQLAVTVGNVTVIITDFKEKTRSSSTSSSTVTSSAGSEQQNQSSSGSESTDKGSSRSSTPKGDMSAVNDESF
B9: OLIG2 (protein, UniProt Q13516 1-323)
chain: MDSDASLVSSRPSSPEPDDLFLPARSKGSSGSAFTGGTVSSSTPSDCPPELSAELRGAMGSAGAHPGDKLGGSGFKSSSSSTSSSTSSAAASSTKKDKKQMTEPELQQLRLKINSRERKRMHDLNIAMDGLREVMPYAHGPSVRKLSKIATLLLARNYILMLTNSLEEMKRLVSEIYGGHHAGFHPSACGGLAHSAPLPAATAHPAAAAHAAHHPAVHHPILPPAAAAAAAAAAAAAVSSASLPGSGLPSVGSIRPPHGLLKSPSAAAAAPLGGGGGGSGASGGFQHWGGMPCPCSMCQVPPPHHHVSAMGAGSLPRLTSDAK
B10: PSPC1 (protein, UniProt Q8WXF1 1-523)
chain: MMLRGNLKQVRIEKNPARLRALESAVGESEPAAAAAMALALAGEPAPPAPAPPEDHPDEEMGFTIDIKSFLKPGEKTYTQRCRLFVGNLPTDITEEDFKRLFERYGEPSEVFINRDRGFGFIRLESRTLAEIAKAELDGTILKSRPLRIRFATHGAALTVKNLSPVVSNELLEQAFSQFGPVEKAVVVVDDRGRATGKGFVEFAAKPPARKALERCGDGAFLLTTTPRPVIVEPMEQFDDEDGLPEKLMQKTQQYHKEREQPPRFAQPGTFEFEYASRWKALDEMEKQQREQVDRNIREAKEKLEAEMEAARHEHQLMLMRQDLMRRQEELRRLEELRNQELQKRKQIQLRHEEEHRRREEEMIRHREQEELRRQQEGFKPNYMENREQEMRMGDMGPRGAINMGDAFSPAPAGNQGPPPMMGMNMNNRATIPGPPMGPGPAMGPEGAANMGTPMMPDNGAVHNDRFPQGPPSQMGSPMGSRTGSETPQAPMSGVGPVSGGPGGFGRGSQGGNFEGPNKRRRY

Molecular target: His6-tagged PTBP1 (human)
Assay: affinity purification with mass spectrometry; 48 ug His6-PTBP incubated in 200 ul splicing reaction (2.2 mM MgCl2, 0.4 mM ATP, 20 mM creatine phosphate, HeLa nuclear extract) at 30°C for 90 min; captured on HisPur Ni-NTA magnetic resin overnight at 4°C, washed (150 mM NaCl, 30 mM imidazole), eluted with 300 mM imidazole; LC-MS/MS; proteins of the Buffer DG and HeLa only controls and common contaminants removed; only the target purified

binding, binds:
B1
B2
B3
B4
B5
B6
B7
B8
B9
B10

Molecular target: His6-tagged PTBP2 (human) (UniProt Q9UKA9)
Assay: as above

binding, binds:
B1
B2
B3
B4
B7
